Primary screen of a compound library

The values are deposited in ChEMBL (CHEMBL3988442, “University of Dundee, Small-Polar-MMV Screening Library” (2021)).

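Viability assay of Plasmodium falciparum sporozoites; the read-out is not stated. The concentration is filed as 10 mM, unlikely as a test dose, so the dose is not known. Direction is inferred from retests: higher values go with lower viability. Strong results were mostly tested again. About 34,000 compounds were tested under these conditions; 0.84% (about 280) showed 50% or more at least once.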

The filed quantity is “Percent Effect” (%). The record does not define 0% and 100%; most values in the screen are far below 50% and negative numbers occur (in some assays of this library far below -100). This is an unselected part of the compounds tested. Two or more numbers in one place are separate tests of the same structure; such repeats can differ widely.

compound | percent effect
O=C(NCc1ccccc1Cn1cncn1)C1CC1 | -0.08977
CC(=O)N1CCCC1c1ccc(-c2c(C)noc2C)cn1 (centres undefined) | -7.701
Cc1nn(C)cc1-c1ccnc(NCCN)n1 | 2.756
CCN(Cc1ccccc1)C(=O)c1cc(C2CCCN2C)ccn1 (centres undefined) | 21.77
COc1ccc(CC(=O)N2CCC[C@@H](N)[C@@H]2c2ccccc2F)cc1.Cl | 9.518
CC(C)Oc1ncccc1CNC(=O)c1cnccn1 | 1.352
COc1cc(CNCc2ccc(NC(=O)NC(C)C)cc2)cc(OC)c1 | 1.244
Cc1nc(C2CCN2c2ncccn2)cc(N(C)C)n1 (centres undefined) | 6.725
O=C1CSC(c2ccsc2)c2c(n(C3CCOCC3)[nH]c2=O)N1 (centres undefined) | 0.8772
O=C(NC1CCOCC1)C1CC(=O)N(Cc2ccccn2)C1 (centres undefined) | -10.12
CCn1c(CN(C)C)nnc1C1CCN(Cc2ccc(Cl)cc2)CC1 | 3.421
CCOc1ccc(CN(C)C(=O)NC(C)c2nncn2C)cc1 (centres undefined) | -10.08
Cc1cnc(N2CCc3cc(C(=O)O)c(N(C)C)nc3CC2)nc1.O=C(O)C(F)(F)F | 6.92
Cc1noc(C(C)Nc2ccc3oc(=O)[nH]c3c2)n1 (centres undefined) | 3.614
c1sc(C2CCCCC2)nc1CN1CCn2c(nnc2C2CC2)C1 | -3.902
Cc1ncc(C(=O)N2CC(C(=O)N3CCOCC3)C2)c(C)n1 | -3.42
CC(C)CC1SCC(=O)Nc2c1cnn2-c1ccc(F)cc1 (centres undefined) | 4.386
Cc1nc(CN2CCCC(Nc3ncnc4ccccc34)C2)no1 (centres undefined) | 5.895
Cc1noc(NC(=O)c2cccc(Br)c2)n1 | -8.528
CN1CCN(S(=O)(=O)C2CC2)Cc2cccnc21 | -3.544
COCCNC(=O)NC1CCN(c2cnn(C)c2)C1 (centres undefined) | -2.281
O=C(CCc1ccc(O)cc1)N1CCC(Cc2ccc(CO)cc2)C1 (centres undefined) | -10.3
CNS(=O)(=O)CCCN1CCCN(Cc2ccccc2)CC1C (centres undefined) | 2.997
O=C(O)C(F)(F)F.[H][C@@]12CCCO[C@]1([H])[C@H](NS(=O)(=O)CC)CN(Cc1cc(C)on1)C2 | -5.536
O=C(O)C(F)(F)F.O=C(O)C(F)(F)F.O=C1NC2(CCN(Cc3ccsc3)CC2)CC1c1ccncc1 (centres undefined) | 5.596
COCCn1c2c(ccc1=O)CC(N)CC2 (centres undefined) | 5.817
CCCC(=O)N1CCC(c2ncc3c(n2)CCNC3)CC1 | 1.823
Cc1nc(C)n(CC2CCCN(CCC(=O)NC3CCCC3)C2)n1 (centres undefined) | 5.884
Cc1ccc(CC(=O)N2CCC(Nc3cccnn3)CC2)s1 | 4.734
CCc1noc(CN2CCN(Cc3cccs3)CC2)n1 | 5.148
COc1ccc(CNc2nc(N3CCOCC3)ns2)cc1 | -8.475
N#Cc1ccc(OCCNc2cccc(C(=O)N3CCOCC3)c2)cc1 | 7.415
Cc1cc(C)cc(OCC(O)CN2CCN(c3nccs3)CC2)c1 (centres undefined) | -10.29
Cc1cc2nc(SCC(=O)N3CCCC3)n(-c3ccccc3)c(=O)c2[nH]1 | 4.171
Cc1csc(N2CCN(C(=O)CCC(=O)c3ccc(C)s3)CC2)n1 | 20.48
O=C(c1cc(-n2cccn2)ccn1)N1CCOc2ccc(F)cc21 | -30.41
[H][C@]12CN(CCOC)C(=O)[C@@]1([H])CN(c1ncccn1)C2 | -10.6
Cc1ccc(-c2ccc(CC3NCCN(C)C3=O)cc2)cc1.Cl (centres undefined) | 5.087
[H][C@@]12CCN(Cc3ccc(C)s3)C[C@]1(C(=O)N1CCCO1)CCO2 | -1.18 and -14.26 and -12.87
Cc1nc(NC2CCCC2)cc(C2CCN2C(=O)c2ccccn2)n1 (centres undefined) | -0.4664
Cc1cc(NC(=O)CN2CCC(N(C)Cc3ncc(C)o3)C2)n(C)n1 (centres undefined) | 5.948
O=C1CCCCCN1Cc1nc(C2(c3ccc(F)cc3)CCOC2)no1 (centres undefined) | 7.18
CCc1cnc(CN(C(C)=O)C2CCN(CC3(O)CCCCC3)C2)o1 (centres undefined) | 0.3798
CN(C)CC(=O)N1CCc2onc(Cn3cccn3)c2C1 | 12.41
Cc1cnn(C2CN(CC(=O)NCCc3c[nH]c4ccccc34)C2)c1 | -4.039
COc1ccc(-c2nnc(SC(C)C(=O)NC(C)(C)C)[nH]2)c(OC)c1 (centres undefined) | -17.4
Cc1ccc(F)cc1S(=O)(=O)NCc1[nH]ncc1Br | -12.54
Cc1cc(NC(=O)NC2CCCc3c2cnn3CCO)n(C)n1 (centres undefined) | -20.83
CCCN(CC(F)F)c1cc(COC)nc2ncnn12 | 5.223
CCOC(=O)CN1CCC2(CC1)CC(=O)c1ccc(OC)cc1O2 | -0.03409
c1ccc(CN2CCN(Cc3cnc(C4CCCCO4)nc3)CC2)cc1 (centres undefined) | 10.8
Cc1ccc(C)c(NC(=O)Cn2cc(I)cn2)c1 | -28.15 and -16.26 and -24.58
CN(Cc1nnc(-c2ccco2)o1)C(C(N)=O)c1cccc(F)c1 (centres undefined) | -3.724
Cc1ccc(C(=O)N(C)Cc2nccn2CC(F)(F)F)cn1 | 8.147
CCn1c(C2CCN(C(=O)c3cc(CC(C)C)no3)CC2)nn(C)c1=O | 11.97 and 16.13
Cc1nc2ccc(C(=O)N3C[C@@H](O)[C@H](N4CCOCC4)C3)cc2[nH]1 | 8.708
Cc1nnc(CN2CCCC2c2c(C)nn(C)c2Cl)o1 (centres undefined) | 3.86
O=C(Nc1ccc(CCN2CCC(O)CC2)cc1)C1CCOCC1 | 3.091
Cc1nnc(CN2CCN(CC(O)c3cccc(F)c3)CC2)n1C (centres undefined) | -20.12
CN(Cc1cccc(C#N)c1)S(=O)(=O)N1CCOCC1 | 7.135
[H][C@@]12CCN(C)[C@]1([H])CN(C(=O)c1ccc3sc4c(c3c1)CCNC4=O)C2 | -10.09
COCC(=O)N1CCCC2(CCN(c3cncnc3)C2=O)C1 (centres undefined) | -5.122
CCCc1noc(CCC(=O)N2CCCC2c2ccsc2)n1 (centres undefined) | -10.12
CS(=O)(=O)NCC(=O)NC1CCCN(c2ccccn2)C1 (centres undefined) | 0.9362
CNC(=O)CN1CCOCC2(CCCN(Cc3ccc(F)cc3)C2)C1.O=C(O)C(F)(F)F.O=C(O)C(F)(F)F (centres undefined) | 0.361
Cc1sc2nc(C(F)(F)F)nc(N3CCCN(C)CC3)c2c1C | 8.703
CCN(CC)CCCNCC1CCOC(C)(C)C1 (centres undefined) | 12.26
[H][C@@]12CCCN1C[C@H](CCSC)N(Cc1cnn(C=C)c1C)C2 | 6.862
Cc1ccccc1-c1cc(NC(=O)Cn2ccccc2=O)n(C)n1 | -11.68
CCCC(=O)NC1CCN(c2ccccc2S(=O)(=O)CC)CC1 | 15.46
CN(C)C(=O)COCc1cncc2c1CCN(C1CCOCC1)C2.O=C(O)C(F)(F)F.O=C(O)C(F)(F)F | 7.972
[H][C@@]12CCN(S(C)(=O)=O)[C@@]1([H])CCN2C(=O)c1cnoc1C | -0.1751
c1cc2c(cc1C1CCCN1Cc1nnnn1C1CC1)OCCO2 (centres undefined) | -5.823
Cc1cc(S(=O)(=O)NC(=O)CCc2cncc(F)c2)c(C)s1 | 0.6519
O=C1CCCN1CCCNCc1cc(O)c2cccc(Cl)c2n1 | 3.837
O=C(c1cccnc1O)N1CCCN(c2cccnn2)CC1 | 7.135
Cc1cnc(CN(C)C2CCN(Cc3nc4ccccc4s3)C2)o1 (centres undefined) | 7.493
[H][C@@]12CN(C(=O)CC(F)(F)F)C[C@]1([H])C(=O)N(CC1CC1)C2 | 4.106

The first 7 entries again:

{"compound": "O=C(NCc1ccccc1Cn1cncn1)C1CC1", "percent effect": -0.08977}
{"compound": "CC(=O)N1CCCC1c1ccc(-c2c(C)noc2C)cn1", "stereo": "centres undefined", "percent effect": -7.701}
{"compound": "Cc1nn(C)cc1-c1ccnc(NCCN)n1", "percent effect": 2.756}
{"compound": "CCN(Cc1ccccc1)C(=O)c1cc(C2CCCN2C)ccn1", "stereo": "centres undefined", "percent effect": 21.77}
{"compound": "COc1ccc(CC(=O)N2CCC[C@@H](N)[C@@H]2c2ccccc2F)cc1.Cl", "percent effect": 9.518}
{"compound": "CC(C)Oc1ncccc1CNC(=O)c1cnccn1", "percent effect": 1.352}
{"compound": "COc1cc(CNCc2ccc(NC(=O)NC(C)C)cc2)cc(OC)c1", "percent effect": 1.244}